Source: patent US20120231007A1, “MODULATORS OF CELL CYCLE PROGRESSION” (SINGAPORE HEALTH SERVICES PTE. LTD., priority 2009, published 2012)
Results are given in words; binding and its absence hold for the method and conditions named. Binding seen in cells or lysates may run through a third protein. Some binding calls cover weakened binding; strength is not graded here.

By UniProt entry, the sequences of proteins in these tests, tags left out. Residues count along the entry.
UniProt P61586, residues 1-190: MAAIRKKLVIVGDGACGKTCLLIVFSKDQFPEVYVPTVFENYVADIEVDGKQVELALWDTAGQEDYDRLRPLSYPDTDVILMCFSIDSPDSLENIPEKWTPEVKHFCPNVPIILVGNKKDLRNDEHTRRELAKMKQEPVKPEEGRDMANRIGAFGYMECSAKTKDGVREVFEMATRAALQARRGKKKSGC

Tests used:
activated RhoA (human) [1] = biological target: activated RhoA (human) (UniProt P61586); assay: Rhotekin RBD pull-down from glioma cell lysate, immunoblot for Ect2 and RhoA
activated RhoA (human) [2] = biological target: activated RhoA (human) (UniProt P61586); assay: Rhotekin RBD pull-down from glioma cell lysate, immunoblot (summary of the study)

binding (activated RhoA (human) [1]): binds | binding (activated RhoA (human) [2]): binds
B1: Epithelial cell transforming sequence 2 (Ect2), full-length human (protein)
chain: AENSVLTSTTGRTSLADSSIFDSKVTEISKENLLIGSTSYVEEEMPQIETRVILVQEAGKQEELIKALKDIKVGFVKMESVEEFEGLDSPEFENVFVVTDFQDSVFNDLYKADCRVIGPPVVLNCSQKGEPLPFSCRPLYCTSMMNLVLCFTGFRKKEELVRLVTLVHHMGGVIRKDFNSKVTHLVANCTQGEKFRVAVSLGTPIMKPEWIYKAWERRNEQDFYAAVDDFRNEFKVPPFQDCILSFLGFSDEEKTNMEEMTEMQGGKYLPLGDERCTHLVVEENIVKDLPFEPSKKLYVVKQEWFWGSIQMDARAGETMYLYEKANTPELKKSVSMLSLNTPNSNRKRRRLKETLAQLSRETDVSPFPPRKRPSAEHSLSIGSLLDISNTPESSINYGDTPKSCTKSSKSSTPVPSKQSARWQVAKELYQTESNYVNILATIIQLFQVPLEEEGQRGGPILAPEEIKTIFGSIPDIFDVHTKIKDDLEDLIVNWDESKSIGDIFLKYSKDLVKTYPPFVNFFEMSKETIIKCEKQKPRFHAFLKINQAKPECGRQSLVELLIRPVQRLPSVALLLNDLKKHTADENPDKSTLEKAIGSLKEVMTHINEDKRKTEAQKQIFDVVYEVDGCPANLLSSHRSLVQRVETISLGEHPCDRGEQVTLFLFNDCLEIARKRHKVIGTFRSPHGQTRPPASLKHIHLMPLSQIKKVLDIRETEDCHNAFALLVRPPTEQANVLLSFQMTSDELPKENWLKMLCRHVANTICKADAENLIYTADPESFEVNTKDMDSTLSRASRAIKKTSKKVTRAFSFSKTPKRALRRALMTSHGSVEGRSPSSNDKHVMSRLSSTSSLAGIPSPSLVSLPSFFERRSHTLSRSTTHLI
